# Results published in paper PMC3415447.
# Amino acid sequences for entries named in this document (tags omitted).
# UniProt P40562: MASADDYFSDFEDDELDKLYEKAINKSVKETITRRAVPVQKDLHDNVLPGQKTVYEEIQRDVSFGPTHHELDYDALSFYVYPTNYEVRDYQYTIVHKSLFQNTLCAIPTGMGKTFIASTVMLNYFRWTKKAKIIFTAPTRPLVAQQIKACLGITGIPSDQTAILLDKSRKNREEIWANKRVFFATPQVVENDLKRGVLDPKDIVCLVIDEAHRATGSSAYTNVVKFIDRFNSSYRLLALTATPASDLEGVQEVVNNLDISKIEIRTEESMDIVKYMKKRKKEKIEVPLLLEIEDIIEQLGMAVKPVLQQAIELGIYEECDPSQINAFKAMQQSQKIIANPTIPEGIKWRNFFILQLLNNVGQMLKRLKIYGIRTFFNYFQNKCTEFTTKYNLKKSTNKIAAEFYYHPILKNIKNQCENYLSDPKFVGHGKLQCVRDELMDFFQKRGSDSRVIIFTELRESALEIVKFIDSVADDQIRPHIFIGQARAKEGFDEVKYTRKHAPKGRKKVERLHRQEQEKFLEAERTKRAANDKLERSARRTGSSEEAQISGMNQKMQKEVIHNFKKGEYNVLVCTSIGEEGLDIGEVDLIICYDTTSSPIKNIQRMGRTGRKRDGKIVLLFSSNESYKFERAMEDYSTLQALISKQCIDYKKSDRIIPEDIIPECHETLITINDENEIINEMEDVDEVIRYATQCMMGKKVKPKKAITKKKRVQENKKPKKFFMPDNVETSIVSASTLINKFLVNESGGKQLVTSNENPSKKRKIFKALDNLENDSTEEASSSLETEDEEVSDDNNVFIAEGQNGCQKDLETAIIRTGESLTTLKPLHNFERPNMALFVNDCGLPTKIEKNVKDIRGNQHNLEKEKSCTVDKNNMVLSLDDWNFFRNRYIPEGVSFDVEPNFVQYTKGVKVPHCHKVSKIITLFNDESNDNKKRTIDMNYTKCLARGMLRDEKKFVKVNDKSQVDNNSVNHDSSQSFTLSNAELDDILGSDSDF
# No constants are given. Whether binding was seen depends on the method and setting. In cells and extracts the contact can be indirect. A yes stands for co-enrichment or nearness to the bait. Other partners may have been found. Sequences can lack the tags named with a protein.
# T1: FLAG-tagged Mgm101 (budding yeast) (UniProt P32787)
# T1 sequence: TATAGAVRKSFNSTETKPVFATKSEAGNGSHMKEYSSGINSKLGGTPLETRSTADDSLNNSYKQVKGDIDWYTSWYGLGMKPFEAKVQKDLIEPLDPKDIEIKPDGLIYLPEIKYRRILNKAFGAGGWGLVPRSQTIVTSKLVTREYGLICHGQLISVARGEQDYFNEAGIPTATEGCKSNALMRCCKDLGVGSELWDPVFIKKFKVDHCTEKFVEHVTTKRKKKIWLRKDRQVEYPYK
# B1: Lsm7 (protein, UniProt P53905 1-115)
# chain: MHQQHSKSENKPQQQRKKFEGPKREAILDLAKYKDSKIRVKLMGGKLVIGVLKGYDQLMNLVLDDTVEYMSNPDDENNTELISKNARKLGLTVIRGTILVSLSSAEGSDVLYMQK
# B2: Msh6 (protein, UniProt Q03834 1-1242)
# chain: MAPATPKTSKTAHFENGSTSSQKKMKQSSLLSFFSKQVPSGTPSKKVQKPTPATLENTATDKITKNPQGGKTGKLFVDVDEDNDLTIAEETVSTVRSDIMHSQEPQSDTMLNSNTTEPKSTTTDEDLSSSQSRRNHKRRVNYAESDDDDSDTTFTAKRKKGKVVDSESDEDEYLPDKNDGDEDDDIADDKEDIKGELAEDSGDDDDLISLAETTSKKKFSYNTSHSSSPFTRNISRDNSKKKSRPNQAPSRSYNPSHSQPSATSKSSKFNKQNEERYQWLVDERDAQRRPKSDPEYDPRTLYIPSSAWNKFTPFEKQYWEIKSKMWDCIVFFKKGKFFELYEKDALLANALFDLKIAGGGRANMQLAGIPEMSFEYWAAQFIQMGYKVAKVDQRESMLAKEMREGSKGIVKRELQCILTSGTLTDGDMLHSDLATFCLAIREEPGNFYNETQLDSSTIVQKLNTKIFGAAFIDTATGELQMLEFEDDSECTKLDTLMSQVRPMEVVMERNNLSTLANKIVKFNSAPNAIFNEVKAGEEFYDCDKTYAEIISSEYFSTEEDWPEVLKSYYDTGKKVGFSAFGGLLYYLKWLKLDKNLISMKNIKEYDFVKSQHSMVLDGITLQNLEIFSNSFDGSDKGTLFKLFNRAITPMGKRMMKKWLMHPLLRKNDIESRLDSVDSLLQDITLREQLEITFSKLPDLERMLARIHSRTIKVKDFEKVITAFETIIELQDSLKNNDLKGDVSKYISSFPEGLVEAVKSWTNAFERQKAINENIIVPQRGFDIEFDKSMDRIQELEDELMEILMTYRKQFKCSNIQYKDSGKEIYTIEIPISATKNVPSNWVQMAANKTYKRYYSDEVRALARSMAEAKEIHKTLEEDLKNRLCQKFDAHYNTIWMPTIQAISNIDCLLAITRTSEYLGAPSCRPTIVDEVDSKTNTQLNGFLKFKSLRHPCFNLGATTAKDFIPNDIELGKEQPRLGLLTGANAAGKSTILRMACIAVIMAQMGCYVPCESAVLTPIDRIMTRLGANDNIMQGKSTFFVELAETKKILDMATNRSLLVVDELGRGGSSSDGFAIAESVLHHVATHIQSLGFFATHYGTLASSFKHHPQVRPLKMSILVDEATRNVTFLYKMLEGQSEGSFGMHVASMCGISKEIIDNAQIAADNLEHTSRLVKERDLAANNLNGEVVSVPGGLQSDFVRIAYGDGLKNTKLGSGEGVLNYDWNIKRNVLKSLFSIIDDLQS
# B3: Msh2 (protein, UniProt P25847 1-964)
# chain: MSSTRPELKFSDVSEERNFYKKYTGLPKKPLKTIRLVDKGDYYTVIGSDAIFVADSVYHTQSVLKNCQLDPVTAKNFHEPTKYVTVSLQVLATLLKLCLLDLGYKVEIYDKGWKLIKSASPGNIEQVNELMNMNIDSSIIIASLKVQWNSQDGNCIIGVAFIDTTAYKVGMLDIVDNEVYSNLESFLIQLGVKECLVQDLTSNSNSNAEMQKVINVIDRCGCVVTLLKNSEFSEKDVELDLTKLLGDDLALSLPQKYSKLSMGACNALIGYLQLLSEQDQVGKYELVEHKLKEFMKLDASAIKALNLFPQGPQNPFGSNNLAVSGFTSAGNSGKVTSLFQLLNHCKTNAGVRLLNEWLKQPLTNIDEINKRHDLVDYLIDQIELRQMLTSEYLPMIPDIRRLTKKLNKRGNLEDVLKIYQFSKRIPEIVQVFTSFLEDDSPTEPVNELVRSVWLAPLSHHVEPLSKFEEMVETTVDLDAYEENNEFMIKVEFNEELGKIRSKLDTLRDEIHSIHLDSAEDLGFDPDKKLKLENHHLHGWCMRLTRNDAKELRKHKKYIELSTVKAGIFFSTKQLKSIANETNILQKEYDKQQSALVREIINITLTYTPVFEKLSLVLAHLDVIASFAHTSSYAPIPYIRPKLHPMDSERRTHLISSRHPVLEMQDDISFISNDVTLESGKGDFLIITGPNMGGKSTYIRQVGVISLMAQIGCFVPCEEAEIAIVDAILCRVGAGDSQLKGVSTFMVEILETASILKNASKNSLIIVDELGRGTSTYDGFGLAWAIAEHIASKIGCFALFATHFHELTELSEKLPNVKNMHVVAHIEKNLKEQKHDDEDITLLYKVEPGISDQSFGIHVAEVVQFPEKIVKMAKRKANELDDLKTNNEDLKKAKLSLQEVNEGNIRLKALLKEWIRKVKEEGLHDPSKITEEASQHKIQELLRAIANEPEKENDNYLKYIKALLL
# B4: Fkh1 (protein, UniProt P40466 1-484)
# chain: MSVTSREQKFSGKYSSYTAQDRQGLVNAVTCVLSSSSDPVAVSSDYSNSLSIAREVNAYAKIAGCDWTYYVQKLEVTIGRNTDSLNLNAVPGTVVKKNIDIDLGPAKIVSRKHAAIRFNLESGSWELQIFGRNGAKVNFRRIPTGPDSPPTVLQSGCIIDIGGVQMIFILPEQETIISDYCLNHLMPKLLSTYGTNGNNNPLLRNIIEGSTYLREQRLQEEARLQQLDHLHTPLSSSSDVNPIGDPHGDTIMMEEDEEDENYTRGGIRPNTYTSSSNNAVTNGNVPHIENPSDLSLDENRYIKPPQSYASMITQAILSTPEGSISLADIYKFISDNYAFYRFSQMAWQNSVRHNLSLNKAFEKVPKRAGQQGKGMNWKISDEVRRDFLNKWNAGKLSKIRRGASVTRQLQLHMSKFGEIPAPESSSIDPRGIKAQKVKKSLQATSSILGESAPQLQRTQLTGQISTTTSMDVTTNANVNNSSLS
# Molecular target: T1, FLAG-tagged Mgm101 (budding yeast)
# Experiment: affinity purification with mass spectrometry; Mgm101-FLAG captured on Anti-FLAG M2 Affinity gel; eluate separated by liquid chromatography, peaks with intensity above 400 trypsin digested and identified by MALDI-TOF MS and MS/MS
row,binding,Molecule
1,binds,Mph1 (from UniProt P40562 1-993)
2,binds,B1
3,binds,B2
4,binds,B3
5,binds,B4
